The target in this test is T1, Iron-Sulfur Cluster Assembly Enzyme (ISCU) (mouse (endogenous in RAW264.7 or BMDM)) (UniProt Q9D7P6).
T1 sequence: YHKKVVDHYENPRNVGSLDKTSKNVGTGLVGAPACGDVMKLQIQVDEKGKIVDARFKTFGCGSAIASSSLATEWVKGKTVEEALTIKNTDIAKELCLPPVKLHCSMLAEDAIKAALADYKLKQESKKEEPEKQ
Put plainly: co-IP; whole-cell lysates of macrophages (M0 or M2 polarised; si-NC or si-ISCU) incubated with 1 ug antibody overnight at 4 C, then protein A/G agarose beads for 4 h at 4 C; immunoblot of the immunoprecipitates.

Sequences of proteins named here, by UniProt entry; tags and fusion partners are left off.
UniProt P02340: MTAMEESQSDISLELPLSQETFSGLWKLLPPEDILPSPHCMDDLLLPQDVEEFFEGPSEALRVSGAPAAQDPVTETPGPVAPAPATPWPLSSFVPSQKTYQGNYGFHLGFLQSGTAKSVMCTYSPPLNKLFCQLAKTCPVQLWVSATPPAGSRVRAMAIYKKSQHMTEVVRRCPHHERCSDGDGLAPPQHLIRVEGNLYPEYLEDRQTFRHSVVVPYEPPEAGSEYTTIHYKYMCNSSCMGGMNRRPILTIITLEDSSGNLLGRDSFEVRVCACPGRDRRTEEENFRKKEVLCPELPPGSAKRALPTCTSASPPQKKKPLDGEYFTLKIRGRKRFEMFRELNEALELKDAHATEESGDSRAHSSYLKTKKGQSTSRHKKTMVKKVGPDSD

No constants are given. Whether binding was seen depends on the method and setting. In cells and extracts the contact can be indirect. Some binding calls cover weakened binding; strength is not graded here.

As for p53 protein (from UniProt P02340 1-390), the binding entry is recorded as “binds”.

(Values after publication PMC12181301.)
